The results in this text go back to PMC6244289.

Amino acid sequences for entries named in this document (tags omitted).
UniProt Q92538: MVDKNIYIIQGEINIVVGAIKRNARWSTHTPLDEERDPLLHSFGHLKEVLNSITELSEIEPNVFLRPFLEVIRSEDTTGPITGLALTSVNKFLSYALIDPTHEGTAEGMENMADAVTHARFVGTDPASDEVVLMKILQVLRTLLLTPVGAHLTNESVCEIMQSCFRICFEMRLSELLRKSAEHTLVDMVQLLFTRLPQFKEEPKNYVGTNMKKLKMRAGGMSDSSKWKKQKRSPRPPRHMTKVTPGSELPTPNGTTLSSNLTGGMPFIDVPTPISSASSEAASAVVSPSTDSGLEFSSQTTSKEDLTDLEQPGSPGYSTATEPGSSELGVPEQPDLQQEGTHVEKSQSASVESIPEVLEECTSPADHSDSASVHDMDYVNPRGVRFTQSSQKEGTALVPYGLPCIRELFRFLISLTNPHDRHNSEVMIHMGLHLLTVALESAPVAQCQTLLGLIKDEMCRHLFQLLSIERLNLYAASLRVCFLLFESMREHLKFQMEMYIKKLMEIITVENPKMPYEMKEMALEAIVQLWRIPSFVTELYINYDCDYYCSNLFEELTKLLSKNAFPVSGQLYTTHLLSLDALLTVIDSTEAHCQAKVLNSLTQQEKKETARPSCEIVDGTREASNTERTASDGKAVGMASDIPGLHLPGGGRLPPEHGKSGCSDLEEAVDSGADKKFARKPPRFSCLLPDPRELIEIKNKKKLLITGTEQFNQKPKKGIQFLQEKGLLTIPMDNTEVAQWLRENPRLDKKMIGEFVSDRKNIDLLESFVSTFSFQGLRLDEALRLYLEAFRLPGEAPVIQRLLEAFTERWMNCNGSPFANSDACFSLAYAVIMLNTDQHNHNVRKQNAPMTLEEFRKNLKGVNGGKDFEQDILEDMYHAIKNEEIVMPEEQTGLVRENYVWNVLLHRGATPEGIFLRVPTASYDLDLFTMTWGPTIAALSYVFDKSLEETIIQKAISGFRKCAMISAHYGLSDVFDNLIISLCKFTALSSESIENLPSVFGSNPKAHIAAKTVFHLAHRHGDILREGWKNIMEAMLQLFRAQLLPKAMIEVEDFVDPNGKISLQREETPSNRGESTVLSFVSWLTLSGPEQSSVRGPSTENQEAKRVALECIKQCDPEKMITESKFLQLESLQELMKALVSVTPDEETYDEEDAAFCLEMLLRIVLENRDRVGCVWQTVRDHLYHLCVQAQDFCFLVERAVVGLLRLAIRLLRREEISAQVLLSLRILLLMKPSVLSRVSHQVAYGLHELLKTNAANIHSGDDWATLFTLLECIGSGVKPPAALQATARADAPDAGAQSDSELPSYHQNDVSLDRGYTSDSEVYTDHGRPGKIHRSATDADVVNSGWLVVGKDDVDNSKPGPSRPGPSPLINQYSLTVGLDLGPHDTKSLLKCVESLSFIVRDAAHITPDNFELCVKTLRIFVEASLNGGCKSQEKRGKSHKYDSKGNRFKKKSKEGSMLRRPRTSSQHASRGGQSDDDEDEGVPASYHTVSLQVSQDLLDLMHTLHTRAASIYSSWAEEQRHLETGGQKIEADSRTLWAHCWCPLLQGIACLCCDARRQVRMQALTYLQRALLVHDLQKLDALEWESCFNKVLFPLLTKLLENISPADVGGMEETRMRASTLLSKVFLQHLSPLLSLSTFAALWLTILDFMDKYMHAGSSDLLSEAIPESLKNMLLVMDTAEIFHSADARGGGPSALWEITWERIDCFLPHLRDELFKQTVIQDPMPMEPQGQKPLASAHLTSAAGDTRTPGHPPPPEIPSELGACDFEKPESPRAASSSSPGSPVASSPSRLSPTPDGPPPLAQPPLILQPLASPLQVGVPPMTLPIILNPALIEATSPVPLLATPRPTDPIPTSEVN
UniProt Q8IXI2: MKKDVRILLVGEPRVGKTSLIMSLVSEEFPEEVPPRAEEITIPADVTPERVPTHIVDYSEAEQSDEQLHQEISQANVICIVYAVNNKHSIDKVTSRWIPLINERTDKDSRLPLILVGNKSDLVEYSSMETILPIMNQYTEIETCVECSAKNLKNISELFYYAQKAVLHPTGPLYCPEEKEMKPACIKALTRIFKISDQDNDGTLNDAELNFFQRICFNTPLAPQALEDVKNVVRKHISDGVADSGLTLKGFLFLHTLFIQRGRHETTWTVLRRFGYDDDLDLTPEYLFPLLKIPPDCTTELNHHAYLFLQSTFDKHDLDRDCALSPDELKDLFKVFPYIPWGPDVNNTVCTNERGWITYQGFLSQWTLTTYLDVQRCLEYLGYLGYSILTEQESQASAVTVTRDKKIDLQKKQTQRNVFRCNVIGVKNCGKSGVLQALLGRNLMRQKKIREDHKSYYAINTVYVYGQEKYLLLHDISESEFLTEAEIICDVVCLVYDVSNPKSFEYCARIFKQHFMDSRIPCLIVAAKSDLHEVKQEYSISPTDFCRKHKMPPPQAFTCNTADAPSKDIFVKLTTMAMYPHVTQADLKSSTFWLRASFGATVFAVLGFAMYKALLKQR

No constants are given. Whether binding was seen depends on the method and setting. In cells and extracts the contact can be indirect. Some entries that bind do so weakly or less than the wild type.

In this assay the target is Venus-GBF1 (human) (UniProt Q92538). Nature of the assay: co-IP; RPE1 cells cotransfected with Venus-GBF1 and Myc-Miro1 or Myc-Miro2; lysis in 50 mM Tris-HCl pH 7.5, 100 mM NaCl, 1 mM EDTA, 0.5% NP40; precipitation of Venus-GBF1 with GFP Binding Protein (GBP)-AminoLink resin, 1h30 at 4 °C; Western blot with anti-GFP and anti-Myc. Background: A western blot detects proteins with antibodies after separation by electrophoresis.

For the substance myc-Miro1 (from UniProt Q8IXI2 1-618), the binding result is “binds”.
